Results from PubChem BioAssay AID1347423 (Functional Genomics Laboratory (NCATS/FGL), 2020).
The whole screen tested about 52,000 sequences, of which about 210 (0.4%) were called active.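 Rule for the calls: active = gene whose silencing raises cell survival under the drug, median off-target-corrected z-score across its silencing RNAs 2 or more; inactive = the rest.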 Some of the results follow.

Assay: Resistance to Poly (ADP-Ribose) Polymerase inhibitor: Gene Identification via Genome-wide siRNA Screen
Conditions: mouse BRCA2 R2336H ES cells, olaparib, CellTiter-Glo viability; stronger effect = higher value
Outline: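 Genome-wide siRNA screen (3 siRNAs/gene, 20 nM) in mouse ES cells carrying hypomorphic BRCA2 R2336H; olaparib 500 nM added 48 h post-transfection, CellTiter-Glo viability 72 h later. Normalized to plate-median negative control; MAD z-scores, gene median, seed-adjusted.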

Row | Sequence | z-score
1 | GGACAAAGGGAUAAUGCUGTT against BC008184 | inactive: 0.0336
2 | AGUCUACAACUACUCCUGUTT against Glrx2 | inactive: 1.01
3 | GAGGUCAUUAUACCAUUGGTT against Tuba7 | inactive: -0.352
4 | GGAGCAAGCCUUUAAAAGATT against Hnrpk | inactive: -2.22
5 | GGAGAUCACACAACAUUUUTT against Ndrg1 | inactive: -1.78
6 | GCCAAGUGUAGGGACUCAGTT against A630052C17Rik | inactive: -1.44
7 | GGCCUCCCUACUUGAAGACTT against Crip3 | active: 1.71
8 | GGAAGAUUUACAAAAACUGTT against BC036718 | inactive: -0.119
9 | GGUUAAAUAUACCUAAGGATT against Spo11 | inactive: 0.83
10 | GGCCAAACAUAGAACUGGUTT against Mbd3l2 | inactive: -1.12
11 | CCAUAUUCAAGGGUGAAAUTT against Dsg3 | inactive: 0.197
12 | GCGACAUCACAAGAAUCGATT against Fancd2 | inactive: 1.7
13 | GGGUUGACUUCAAGAACAUTT against Cxcl2 | inactive: -0.429
14 | GGAAAGCGAUACCUAAACATT against 9330174J19Rik | inactive: -1.67
15 | GGACAACUCAGAUUGGACUTT against Adprhl2 | inactive: -1.57
16 | GGAAUCUUGUUAGCUAUGGTT against Olfr615 | inactive: -0.943
17 | GGAGCCCUUUCUACUGGUGTT against Snn | inactive: -0.955
18 | GGAAAAUGUCCCACUUUUATT against Olfr70 | inactive: 0.292
19 | CCCUGGUUGUUUGUAGAGUTT against 1700052N19Rik | inactive: 1.13
20 | GGAAGAUCACAGAAUUCUCTT against Abp1 | inactive: 0.0538
21 | CCAGCUAGAAAAUCUCUCCTT against Cnn2 | inactive: 0.00018
22 | GCAGAUGUCAUGGUAACUCTT against Suv420h1 | inactive: -0.316
23 | GGAGCGGAAUUUAUGGCGATT against 6720416L17Rik | inactive: 0.28
24 | GGUCUCAGACAAAGAUGAATT against Rg9mtd1 | inactive: -0.136
25 | GGAAGUUUUGAAACUUGUUTT against Gabrp | inactive: -0.0545
26 | GGGAUUCCUGGACAACAUUTT against Glce | inactive: -2.07

Row | Sequence | z-score
27 | GGUGGAUGAAGUAAACCAGTT against Chrna3 | inactive: -0.208
28 | GCCUGGAGACUACAUAUCCTT against Cdc20 | inactive: -2.37
29 | GGACCUGGAUCUAUCCUACTT against Lrfn1 | inactive: 0.431
30 | GCUGUGACAGAAGCUUUCGTT against Vars2l | inactive: 0.0993
31 | GGUCAGUCAACAUGAACUUTT against Acad9 | inactive: 1.49
32 | GGAGGAGUGCAAGGACUUUTT against 0610009H04Rik | inactive: -0.98
33 | GCGGCUCACAAGAGUAUCGTT against 2310026E23Rik | inactive: -2.05
34 | GGAAAUUCAAAAAGUGUGUTT against 2010301N04Rik | inactive: 1.27
35 | GGUCAGAGAAAGAUGUAAATT against 1300002C08Rik | inactive: -0.203
36 | GGCAUGACAUGUAGAUGGCTT against 1700055N04Rik | inactive: -0.354
37 | GGCUUCCUCCACUCUUUCCTT against Rhbg | inactive: 0.815
38 | GGGUGACAACCAAAGACUGTT against Mill1 | inactive: -0.9
39 | GGUGGAAGACAAGAGGAUATT against Sytl5 | inactive: -0.348
40 | GCAUUGAAAUCGUUAAAGCTT against AI467484 | inactive: 0.56
41 | GGCUGCUCUAUUAUAAGAATT against Centa2 | inactive: 0.11
42 | GGAAGUUGGUGAGCUGGUATT against Ccl17 | inactive: -1.95
43 | GGGACAAGAUCUGAACUUCTT against Rgl3 | inactive: -0.136
44 | CCUGUUAGCUGAAUUCAACTT against Entpd4 | inactive: 0.86
45 | UCAUUGAGAAAGGAGAAGATT against Cox17 | inactive: 0.93
46 | CGUAGACCUUUUCCACUACTT against Plod1 | inactive: 1.33
47 | GCUUACCUAACUCUUAAACTT against Gpr126 | inactive: -0.129
48 | GCCUCCUUGUCUGGAAAUUTT against 9130023F12Rik | inactive: -0.502
49 | GUAGAAGAGUUUCCCACGGTT against LOC432555 | inactive: 1.88
50 | GGCAUGAAACCUCCAAAGCTT against 1520401A03Rik | inactive: 0.769
51 | CCUCAAUGAGGUCCUGAUGTT against Olfr108 | inactive: -1.01
52 | GGAUGAAAAAGCUCACUUUTT against Srms | inactive: -1.36

Row | Sequence | z-score
53 | GGACAUGAAGAUCAAGUCCTT against Rps2 | inactive: -0.132
54 | GGUCAGAACAACGACAAGUTT against Tpcn1 | inactive: 1.12
55 | GGCCAAGAAGGUGUGGUACTT against 2610510L01Rik | inactive: -0.289
56 | GCUCCUAUGCAAACAUUGCTT against Olfr1390 | inactive: 0.016
57 | GGUGGAAGGCACUUUUAUUTT against Zmpste24 | inactive: 0.649
58 | GGCUUUUUCUACUUGUUCUTT against Olfr768 | inactive: 0.0117
59 | GCGAUGUGGACAGAAGUACTT against Cyba | inactive: -1.06
60 | GCUCUCCUCAAGUCAAGUGTT against D19Ertd386e | inactive: -1.88
61 | CCUGUCUUCUCUCUUGUAUTT against Zswim4 | inactive: -1.27
62 | GGUGUCUCAUCAUGUUUCCTT against Ccl28 | inactive: 0.22
63 | GGCACAGACUAAGGUAUAGTT against Adra2c | inactive: 0.75
64 | GGUAAAACCCAAUAGUAACTT against Gclm | inactive: 0.487
65 | GGAGAUGUUAAGCAAGAAGTT against 2010012F05Rik | inactive: -1.45
66 | CCAUACAGAUCGCACCCUGTT against 2310047H23Rik | inactive: 0.664
67 | GCCUAUCUACGACCUCAUCTT against Kel | inactive: -0.252
68 | GUGCUAUGUGAAGAGCAGCTT against Klri1 | inactive: 1.06
69 | GCAAAAUGGGAUUUGUCAUTT against Grm1 | inactive: 0.61
70 | CCGAGUCCAGAACACUCUUTT against Fmr2 | inactive: -0.936
71 | GGUUACCUCAUUUGACGGATT against BC048671 | inactive: 0.943
72 | GGAGUACCAGAGUAUAUGATT against BC016495 | inactive: -1.98
73 | GGAUCAAUGGAUUCUGCACTT against 2310056P07Rik | inactive: -0.65
74 | GGUACAACUGUAAAUAUUCTT against Npc1 | inactive: 0.26
75 | GACAGUGAUCACUUGUGGUTT against Ly6g6d | inactive: 0.553
76 | GAGUGCUACAUUACGUACCTT against LOC435285 | inactive: 0.291
77 | GCUAAGAAACUGGUCUCAUTT against Reg4 | inactive: 0.53
78 | GCAUCCCUUCCGAGAAACATT against Bat3 | inactive: -1.15

Copied from the list:
z-score with GGAAAUUCAAAAAGUGUGUTT against 2010301N04Rik reads inactive: 1.27
z-score with GGUUACCUCAUUUGACGGATT against BC048671 reads inactive: 0.943
z-score with GGAGCAAGCCUUUAAAAGATT against Hnrpk reads inactive: -2.22
z-score with GCCUAUCUACGACCUCAUCTT against Kel reads inactive: -0.252

Additional results.

Row | Sequence | z-score
79 | CCAGUCCUUGAAAAGAGCUTT against Olfr128 | inactive: 0.716
80 | GGACAUCUAUGAGUUUAGCTT against AI194308 | inactive: -0.625
81 | GGAAAGGAUACGAGACAAUTT against Kctd2 | inactive: -0.282
82 | GGUGACUGGAAAAGAGGCUTT against Spink3 | inactive: -1.84
83 | CCAAUCGUAAUGACAAUUCTT against Myo1d | inactive: 0.164
84 | GGUAUCUGCAUGUCUUAAUTT against Snx14 | inactive: -1.88
85 | CCGAUAUGUGAAAAUUAAGTT against Rpl32 | inactive: -1.48
86 | GCCUAUCAUCGAGUGUGUATT against Gphb5 | inactive: -0.954
87 | GGAAGAUUCCUUAACCAAGTT against Setmar | inactive: 1.01
88 | CGAAUAGGGAGCCAUAAGATT against 2310057H16Rik | inactive: 3.19
89 | GGUCCUUUACAUGAACCGCTT against Vps18 | inactive: -1.12
90 | UAAAAAUGAGCCGGGCAAUTT against Ms4a5 | inactive: -0.696
91 | GGAUAUCACAUUUGUUGCUTT against Anapc4 | inactive: -2.35
92 | GCUAGUUAUCUAAUCUCUGTT against B230104P22Rik | inactive: -1.64
93 | GGUAAAGAUCUGGAGACGATT against Pgam1 | inactive: -0.422
94 | GGAGAAGCGGCAAAUGGAATT against 2510049I19Rik | inactive: -0.608
95 | GGACCAAAACACUACCAAUTT against Tinag | inactive: -0.874
96 | GGCCUUCAGCACUUGUGUGTT against Olfr585 | inactive: 0.495
97 | CCAAGUUCUAUCAACGAAGTT against Olfr174 | inactive: 1.52
98 | GCUGCCAAUACAAAUUGUCTT against Nalp9a | inactive: 0.188
99 | GGUCAAACUGAAGAAGGAGTT against Slc7a7 | inactive: 1.64
100 | GGAAGUCGGGCAAAUACAATT against Tacstd2 | inactive: -0.281
101 | CGGCUUACCAGUCCUGUUUTT against Gpr124 | inactive: -1.2
102 | GGUCCAAAGAUAGAAGCCATT against 4930569K13Rik | inactive: 1.06
103 | GGACCAGUUCCUUAAGUUUTT against 1100001I19Rik | inactive: 0.345
104 | GGCGCAGUAAAGAGGAGAUTT against Ccnb3 | inactive: -2.02

Reformatted field by field: part of the list above
GGACAACUCAGAUUGGACUTT against Adprhl2
  z-score: inactive: -1.57
GGAAUCUUGUUAGCUAUGGTT against Olfr615
  z-score: inactive: -0.943
GGAGCCCUUUCUACUGGUGTT against Snn
  z-score: inactive: -0.955
